This test addresses RING1 (the product of Sex combs extra (Sce) gene) (Drosophila melanogaster (endogenous in embryos)) (UniProt Q9VB08). Put plainly: co-IP.

Chains of the proteins cited; added tags and fusions are not shown.
UniProt Q9VB08: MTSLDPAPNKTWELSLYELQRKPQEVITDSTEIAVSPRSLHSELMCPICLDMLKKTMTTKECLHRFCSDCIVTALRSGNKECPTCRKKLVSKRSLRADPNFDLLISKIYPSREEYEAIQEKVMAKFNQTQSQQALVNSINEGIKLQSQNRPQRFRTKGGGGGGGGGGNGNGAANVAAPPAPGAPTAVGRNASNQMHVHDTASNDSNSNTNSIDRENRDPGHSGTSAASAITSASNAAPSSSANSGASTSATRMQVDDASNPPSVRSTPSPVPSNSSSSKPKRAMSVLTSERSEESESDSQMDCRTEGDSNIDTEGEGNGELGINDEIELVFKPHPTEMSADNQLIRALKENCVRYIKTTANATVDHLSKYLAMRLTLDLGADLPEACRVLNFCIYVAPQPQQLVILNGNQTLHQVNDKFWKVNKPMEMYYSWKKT
UniProt P35820: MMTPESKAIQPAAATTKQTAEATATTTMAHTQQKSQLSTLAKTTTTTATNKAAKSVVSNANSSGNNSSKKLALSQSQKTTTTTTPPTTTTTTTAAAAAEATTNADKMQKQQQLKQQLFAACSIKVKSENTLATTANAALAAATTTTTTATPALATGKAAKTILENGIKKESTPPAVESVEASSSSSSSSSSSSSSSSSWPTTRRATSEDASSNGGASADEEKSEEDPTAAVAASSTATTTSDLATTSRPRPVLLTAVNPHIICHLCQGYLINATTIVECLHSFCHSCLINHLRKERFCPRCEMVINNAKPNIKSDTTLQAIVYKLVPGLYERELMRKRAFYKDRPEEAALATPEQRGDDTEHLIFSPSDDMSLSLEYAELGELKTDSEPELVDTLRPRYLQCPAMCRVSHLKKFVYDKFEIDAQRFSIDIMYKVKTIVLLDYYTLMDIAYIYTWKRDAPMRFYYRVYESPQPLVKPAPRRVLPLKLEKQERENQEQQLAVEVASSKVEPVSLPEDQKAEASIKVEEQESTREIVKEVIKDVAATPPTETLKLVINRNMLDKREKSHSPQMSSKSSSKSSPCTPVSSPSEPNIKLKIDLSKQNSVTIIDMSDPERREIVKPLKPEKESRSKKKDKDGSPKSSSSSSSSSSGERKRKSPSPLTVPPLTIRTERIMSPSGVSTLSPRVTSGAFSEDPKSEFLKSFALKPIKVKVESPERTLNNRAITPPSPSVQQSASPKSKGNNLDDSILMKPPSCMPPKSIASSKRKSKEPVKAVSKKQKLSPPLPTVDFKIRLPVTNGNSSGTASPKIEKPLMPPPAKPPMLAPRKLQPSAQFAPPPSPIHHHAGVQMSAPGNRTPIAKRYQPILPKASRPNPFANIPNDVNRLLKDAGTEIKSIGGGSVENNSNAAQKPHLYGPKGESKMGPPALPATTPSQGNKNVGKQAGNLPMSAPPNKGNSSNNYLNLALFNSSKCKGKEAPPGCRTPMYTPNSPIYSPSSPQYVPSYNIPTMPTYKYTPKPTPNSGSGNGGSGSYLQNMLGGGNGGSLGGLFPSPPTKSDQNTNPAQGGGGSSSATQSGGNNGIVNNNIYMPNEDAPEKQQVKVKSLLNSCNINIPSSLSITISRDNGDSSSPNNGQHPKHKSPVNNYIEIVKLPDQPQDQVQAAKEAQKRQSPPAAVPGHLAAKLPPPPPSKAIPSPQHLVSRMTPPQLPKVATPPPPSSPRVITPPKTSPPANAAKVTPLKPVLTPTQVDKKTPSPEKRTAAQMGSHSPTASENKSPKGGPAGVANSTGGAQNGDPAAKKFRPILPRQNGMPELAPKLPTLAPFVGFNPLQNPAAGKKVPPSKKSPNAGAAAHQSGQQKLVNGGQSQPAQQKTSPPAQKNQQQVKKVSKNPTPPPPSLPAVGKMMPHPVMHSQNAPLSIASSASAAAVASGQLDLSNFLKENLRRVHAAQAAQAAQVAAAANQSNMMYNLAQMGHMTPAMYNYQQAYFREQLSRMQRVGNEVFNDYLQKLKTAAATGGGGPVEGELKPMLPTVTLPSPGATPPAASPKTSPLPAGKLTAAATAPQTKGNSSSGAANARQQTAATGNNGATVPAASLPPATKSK

Results are given in words; binding and its absence hold for the method and conditions named. In cells and extracts the contact can be indirect. Some binding calls cover weakened binding; strength is not graded here.

Take “Posterior sex combs (Psc) (from UniProt P35820 1-1601)”: the binding result is “binds”.

B1: Polycomb (Pc) (protein, UniProt P26017 1-390)
chain: MTGRGKGSKGKLGRDNATDDPVDLVYAAEKIIQKRVKKGVVEYRVKWKGWNQRYNTWEPEVNILDRRLIDIYEQTNKSSGTPSKRGIKKKEKEPDPEPESEEDEYTFTENDVDTHQATTSSATHDKESKKEKKHHHHHHHHHHIKSERNSGRRSESPLTHHHHHHHHESKRQRIDHSSSSNSSFTHNSFVPEPDSNSSSSEDQPLIGTKRKAEVLKESGKIGVTIKTSPDGPTIKPQPTQQVTPSQQQPFQDQQQAEKIASEAATQLKSEQQATPLATEAINTTPAESGAEEEEVANEEGNQQAPQVPSENNNIPKPCNNLAINQKQPLTPLSPRALPPRFWLPAKCNISNRVVITDVTVNLETVTIRECKTERGFFRERDMKGDSSPVA
On to B1, for which the binding entry is “binds”.

The values are drawn from doi:10.1101/2025.07.18.664654.
